This is an account of results in PubChem BioAssay AID1963576 (National Center for Advancing Translational Sciences (NCATS), 2024).

The hits were mostly taken out for another list; the other results follow. Results filed as inconclusive are left out. Active and inactive are the calls of the source. Calls follow the shape of the dose curve; as a rule, active = well fitted inhibition curve with a large enough effect; inconclusive = small, poorly fitted or top-dose-only effect; inactive = no such curve, though single readings can be large or run the other way.

This assay in a line: Primary qHTS assay for Inhibitors of ovarian cancer metastasis using an organotypic tumor microenvironment (TME) model.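 Also: plate controls were DMSO wells for no effect and tomatine positive control wells for full effect; nearly all actives have a fitted effect of over 65% in size.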 The conditions noted are these: SKOV3ip1-GFP adhesion/invasion on 3D omental model, fluorescence; at 45.8 µM (top of the series). The text has this: PI: Ernst Lengyel MD., Ph.D. Department of Obstetrics and Gynecology, Section of Gynecologic Oncology University of Chicago Medicine, Chicago, Illinois. The tumor microenvironment (TME) is a key determinant of metastatic efficiency. We performed a quantitative high-throughput screen (qHTS) of diverse medicinal chemistry tractable scaffolds (44,420 compounds) and pharmacologically active small molecules (386 compounds) using a layered organotypic, robust assay representing the ovarian cancer metastatic TME. This 3D model contains primary human mesothelial cells, fibroblasts, and extracellular matrix, to which fluorescently labeled ovarian cancer cells are added. Initially, 100 compounds inhibiting ovarian cancer adhesion/invasion to the 3D model in a dose-dependent manner were identified. […]
PROTOCOL TABLE (as described by Inglese J, Shamu CE and Guy RK. 2007) SEQUENCE No. (e.g., 1, 2, 3, etc.); […] […] 11; Detection; Fluorescence, excitation filter 488 nm, emission filter 509 nm. […] The number of GFP-labeled cells analyzed using a fluorescent cytometer TTP LabTech Acumen eX3 using 488 nm excitation filter and 509 nm emission filter. […] Yasgar A, Shinn P, Jadhav A, Auld DS, Michael S, Zheng W, Austin CP, Inglese J and Simeonov A, Compound Management for Quantitative High-Throughput Screening. […]
In general terms: In qHTS, concentration-response curves come from the screen itself.
Regarding `O=C(CCCCCCC(=O)Nc1ccccc1)NO`, the activity change, negative = inhibition was inactive: -8.03%.
Under `CCS(=O)(=O)N1CC(CC#N)(n2cc(-c3ncnc4[nH]ccc34)cn2)C1` stands inactive: 34.6%.
